Results on 26 molecules are retold here after PubChem BioAssay AID248 (DTP/NCI, 2004).

SMILES strings stand for the structures. The list shows only some results of the screen, not a fair sample: it gathers tests that were run many times, whatever their T/C, doses with no T/C, and many T/C values between a quarter and a half above the control. Further doses and runs are listed elsewhere. T/C: endpoint of the treated group in % of that of the vehicle group. Some doses have a count of surviving animals in place of a T/C: the source files T/C as zero there, which appears to mark a toxic dose or a test without result, not a measured value. Some survivor counts are full or nearly so, which does not show that the dose was tolerated: the source hardly ever lists a survival T/C far under the control, and the zero likely stands for such cases as well. Survivors were counted at the toxicity check, usually on the fifth day, unless a day is given; later deaths do not show. Schedules are NCI's codes, read here as Q, the interval in days (D) or hours (H), X, the number of doses. Some doses were run more than once; their values stand side by side, smallest first. Some schedule codes hold Z or #, which are not explained here. Where survival is the endpoint, the PubChem record calls one and a half times the control and up active, and a quarter to a half above the control has no call in these data; cut-offs in other NCI protocols can differ. Some T/C values are followed by the survivors on the day toxicity was checked, most often the fifth; without a count, all were alive then.

This experiment concerns L1210 leukemia ip in BDF1 mice, survival T/C. The experiment is described as follows: NCI In Vivo Anticancer Drug Screen. Data for tumor model L1210 Leukemia (intraperitoneal) in B6D2F1 (BDF1) mice. As to conditions: T/C endpoint: mean survival time, higher T/C = longer survival.
[1] abbreviates: dose: 100.0 mg/kg/injection, schedule: Q01DX009 (ip), vehicle: saline.
[2] abbreviates: dose: 400.0 mg/kg/injection, schedule: Q04DX003 (ip), vehicle: saline.
Setting [3] is: dose: 400.0 mg/kg/injection, schedule: Q04DX003 (ip), vehicle: Klucel (hydroxypropylcellulose) (HPC).
Setting [4] is: dose: 25.0 mg/kg/injection, schedule: Q01DX009 (ip), vehicle: saline with Tween-80.
Where [5] appears, read: dose: 50.0 mg/kg/injection, schedule: Q01DX009 (ip), vehicle: saline with Tween-80.
Setting [6] is: dose: 100.0 mg/kg/injection, schedule: Q01DX009 (ip), vehicle: saline with Tween-80.
[7] abbreviates: dose: 200.0 mg/kg/injection, schedule: Q04DX003 (ip), vehicle: saline.

Regarding `CC(=O)C(CN(C)C)c1ccccc1` (stereo not given), the survivor count under setting [1] is reported as 6 of 6. Take `NOCc1ccc(CON)cc1`: the survivor count under setting [2] was 3 of 4.

As to `CCN(CC)CC(O)c1ccnc2c(N)cc(OC)cc12` (stereo not given), the survivor count (dose: 300.0 mg/kg/injection, schedule: Q01DX001 (ip), vehicle: acetone) is given as 0 of 6. `CCSc1ccc2c(cc1=O)C(NC(=S)Nc1ccccc1)CCc1cc(OC)c(OC)c(OC)c1-2` (stereo not given): where the note is “dose: 400.0 mg/kg/injection, schedule: Q04DX003 (ip), vehicle: carboxymethylcellulose (CMC)”, the survivor count is 6 of 6. As for `CCCCc1ccccn1`, the survivor count is 0 of 4 (dose: 200.0 mg/kg/injection, schedule: Q01DX001 (ip), vehicle: saline) and 0 of 4 (dose: 400.0 mg/kg/injection, schedule: Q01DX001 (ip), vehicle: saline). On to `O=C(O)COc1c(Br)cc(F)cc1Br`, for which the survivor count (dose: 100.0 mg/kg/injection, schedule: Q04DX002 (ip), vehicle: other) is recorded as 3 of 3. As to `CCCCCCCCCCCCNC(=O)CCl`, the survivor count under setting [3] is recorded as 6 of 6.

Consider `Cc1ccc(S(=O)(=O)NC(CSCc2ccccc2)C(=O)O)cc1` (stereo not given), for which the survivor count (dose: 400.0 mg/kg/injection, schedule: Q01DX009 (ip), vehicle: saline with Tween-80) was 4 of 6.

With `O=C(NC(=S)Nc1cc(C(F)(F)F)ccc1Cl)c1ccccc1F`, the T/C under setting [4] was 95 and 97 % of control; the T/C under setting [5] is reported as 88, 90, 96 % of control; the T/C under setting [6] is 89 and 95 % of control. In addition, the survivor count under setting [4] was 3 of 3 and 6 of 6; the survivor count under setting [5] is on record as 3 of 3; the survivor count under setting [6] was 3 of 3 and 6 of 6; the survivor count (dose: 100.0 mg/kg/injection, schedule: Q04DX003 (ip), vehicle: saline with Tween-80) was 6 of 6; the survivor count (dose: 200.0 mg/kg/injection, schedule: Q04DX003 (ip), vehicle: saline with Tween-80) is 6 of 6. Regarding `CCCC(N)C(O)c1ccccc1` (stereo not given), the survivor count (dose: 300.0 mg/kg/injection, schedule: Q01DX001 (ip), vehicle: saline) is reported as 2 of 6.

With `Oc1c(I)cc(I)c2cccnc12`, the survivor count (dose: 400.0 mg/kg/injection, schedule: Q01DX001 (ip), vehicle: Klucel (hydroxypropylcellulose) (HPC)) was 0 of 6. As to `CCCN(CCC)CCCCCO`, under “dose: 400.0 mg/kg/injection, schedule: Q04DX003 (ip), vehicle: saline with Tween-80”, the survivor count is given as 3 of 6.

Consider `NP(=O)(OCCCOCc1ccccc1)N(CCCl)CCCl` (stereo not given), for which the survivor count (dose: 1000.0 mg/kg/injection, schedule: Q01DX001 (ip), vehicle: saline) is on record as 2 of 6. `CC(CCCN(CCCl)CCCl)Nc1ccnc2cc(Cl)ccc12` (stereo not given): the survivor count is recorded as 1 of 6 (dose: 20.0 mg/kg/injection, schedule: Q01DX001 (ip), vehicle: saline); 0 of 6 (dose: 40.0 mg/kg/injection, schedule: Q01DX001 (ip), vehicle: saline); 0 of 6 (dose: 80.0 mg/kg/injection, schedule: Q01DX001 (ip), vehicle: saline). `CN(/N=C/c1ccccc1)C(=S)Nc1ccccc1`: the T/C (dose: 125.0 mg/kg/injection, schedule: Q04DX003 (ip), vehicle: Klucel (hydroxypropylcellulose) (HPC)) was 133 % of control.

Regarding `N=C(N)N/N=C(\C=N\NC(=N)N)c1ccc(Oc2ccc(C(/C=N/NC(=N)N)=N\NC(=N)N)cc2)cc1`, the survivor count is reported as 3 of 6 (dose: 15.0 mg/kg/injection, schedule: Q01DX Z (ip), vehicle: saline); 0 of 6 (dose: 30.0 mg/kg/injection, schedule: Q01DX Z (ip), vehicle: saline); 0 of 6 (dose: 60.0 mg/kg/injection, schedule: Q01DX Z (ip), vehicle: saline); 0 of 6 (dose: 120.0 mg/kg/injection, schedule: Q01DX Z (ip), vehicle: saline). Turning to `CC(C)CCC[C@@H](C)[C@H]1CC[C@H]2[C@@H]3CC=C4C[C@@H](OC(=O)Cc5ccc(N(CCCl)CCCl)cc5)CC[C@]4(C)[C@H]3CC[C@]12C`, the T/C (dose: 200.0 mg/kg/injection, schedule: Q01DX009 (oral), vehicle: other) was 129 % of control. Besides, the survivor count (dose: 800.0 mg/kg/injection, schedule: Q01DX009 (sc), vehicle: other) was 6 of 6.

As to `CC(CC(CCC(CC(C)CC(C)(C)C)N(C)C)N(C)C)CC(C)(C)C` (stereo not given), the survivor count is, setting by setting: (dose: 200.0 mg/kg/injection, schedule: Q04DX002 (ip), vehicle: Klucel (hydroxypropylcellulose) (HPC)) 1 of 3; (dose: 400.0 mg/kg/injection, schedule: Q04DX002 (ip), vehicle: Klucel (hydroxypropylcellulose) (HPC)) 2 of 3.

Regarding `Cc1ccc2c(Br)cc(Br)c(O)c2n1`, the survivor count (dose: 200.0 mg/kg/injection, schedule: Q01DX009 (ip), vehicle: Klucel (hydroxypropylcellulose) (HPC)) is recorded as 1 of 6 and the survivor count (dose: 400.0 mg/kg/injection, schedule: Q01DX009 (ip), vehicle: Klucel (hydroxypropylcellulose) (HPC)) was 1 of 6. Take `O=NN(CCCl)C(=O)NN1CCCCCC1`: the survivor count (dose: 60.0 mg/kg/injection, schedule: Q01DX001 (ip), vehicle: carboxymethylcellulose (CMC)) is 0 of 6; the survivor count (dose: 75.0 mg/kg/injection, schedule: Q01DX001 (ip), vehicle: carboxymethylcellulose (CMC)) is on record as 0 of 6; the survivor count (dose: 150.0 mg/kg/injection, schedule: Q01DX001 (ip), vehicle: carboxymethylcellulose (CMC)) was 0 of 6; the survivor count (dose: 300.0 mg/kg/injection, schedule: Q01DX001 (ip), vehicle: carboxymethylcellulose (CMC)) is reported as 0 of 6.

Turning to `C1CCN(CCC2CCCCN2)CC1` (stereo not given), the survivor count runs as follows: under setting [7], 3 of 6; under setting [2], 0 of 6. Consider `CCCCCCCCCCCCC(=O)N1CCCCC1`, for which the survivor count (dose: 400.0 mg/kg/injection, schedule: Q04DX002 (ip), vehicle: saline) was 3 of 3. As for `CCC(C)C(CCN1CCCCC1)(CNC(=O)CN(CC)CC)Cc1cccc2ccccc12` (stereo not given), the survivor count by setting is: under setting [1], 1 of 6; (dose: 200.0 mg/kg/injection, schedule: Q01DX009 (ip), vehicle: saline) 0 of 6; (dose: 400.0 mg/kg/injection, schedule: Q01DX009 (ip), vehicle: saline) 0 of 6. For the molecule `Cc1ccc2c(c1)N(CCCN(C)C)c1ccccc1S2`, the T/C (dose: 50.0 mg/kg/injection, schedule: Q04DX003 (ip), vehicle: saline) is 135 % of control [4 of 6 alive].

`COc1cc2c3c(c1)C(O)CC[N+]3(C)CCC2` (stereo not given): the survivor count (dose: 100.0 mg/kg/injection, schedule: Q04DX003 (ip), vehicle: saline) is given as 6 of 6; the survivor count under setting [7] is given as 0 of 6; the survivor count under setting [2] is 1 of 6. For `CC12CCC(C1)C(C)(C)C2C(N)=O` (stereo not given), under setting [3], the survivor count was 3 of 6.
